Laboratory results reported in PMC10239695.
These are yes or no findings as the source states them, for the method shown. Some entries that bind do so weakly or less than the wild type. For some assays here: Sequences can lack the tags named with a protein.

The chains behind the UniProt entries cited, without tags or fusion partners.
UniProt A0A096ZNX6: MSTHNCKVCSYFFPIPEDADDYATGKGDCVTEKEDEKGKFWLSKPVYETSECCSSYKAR

T1: Benzylsuccinate synthase alpha subunit (BSSα), C-terminally His6 tagged (UniProt O68395)
T1 sequence: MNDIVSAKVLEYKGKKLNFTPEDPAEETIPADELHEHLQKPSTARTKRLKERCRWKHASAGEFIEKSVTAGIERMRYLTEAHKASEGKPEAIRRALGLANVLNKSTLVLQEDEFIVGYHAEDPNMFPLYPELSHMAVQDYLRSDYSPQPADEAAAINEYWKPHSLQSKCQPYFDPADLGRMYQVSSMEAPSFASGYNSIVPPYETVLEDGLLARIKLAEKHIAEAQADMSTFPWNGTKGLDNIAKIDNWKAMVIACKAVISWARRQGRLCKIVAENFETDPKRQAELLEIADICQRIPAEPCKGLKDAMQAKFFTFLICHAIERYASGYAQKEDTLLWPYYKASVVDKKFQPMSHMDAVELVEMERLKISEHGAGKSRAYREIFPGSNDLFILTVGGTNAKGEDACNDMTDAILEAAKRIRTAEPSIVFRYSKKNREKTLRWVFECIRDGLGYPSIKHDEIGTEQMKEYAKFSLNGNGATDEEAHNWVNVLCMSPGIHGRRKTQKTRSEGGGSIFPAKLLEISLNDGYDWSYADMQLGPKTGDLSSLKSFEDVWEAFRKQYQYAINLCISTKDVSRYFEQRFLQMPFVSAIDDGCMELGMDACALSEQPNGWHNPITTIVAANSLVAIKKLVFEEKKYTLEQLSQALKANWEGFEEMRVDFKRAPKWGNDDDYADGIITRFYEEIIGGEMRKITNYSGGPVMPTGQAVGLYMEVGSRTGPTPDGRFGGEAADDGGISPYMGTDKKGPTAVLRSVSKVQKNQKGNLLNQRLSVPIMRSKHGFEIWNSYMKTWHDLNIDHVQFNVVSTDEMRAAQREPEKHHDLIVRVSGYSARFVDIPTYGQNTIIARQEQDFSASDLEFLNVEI


How the values were obtained:
[1] = target: 4-isopropylbenzylsuccinate synthase alpha subunit (IBSSα), C-terminally His6 tagged; assay: co-purification (IMAC on TALON resin); α subunit C-terminally His6 tagged, co-expressed with the γ subunit in E. coli; anaerobic TALON purification from clarified lysate, 50 mM HEPES pH 8.0, 300 mM NaCl; SDS-PAGE of the purified complex
[2] = target: T1, Benzylsuccinate synthase alpha subunit (BSSα), C-terminally His6 tagged; assay: as above

| binding [1] | binding [2] | Molecule |
| --- | --- | --- |
| binds |  | 4-isopropylbenzylsuccinate synthase gamma subunit (IBSSγ) (from UniProt A0A096ZNX6 1-59) |
|  | binds | Benzylsuccinate synthase gamma subunit (BSSγ) (protein, UniProt O68394 1-60) MGTTTCKQCANFFPVPKDADDYEAGKADCVREKEDEKGKYWLSKPIFENSAQCEAFQTKR |
